Values quoted from earlier work as cited in US20070280929A1, “ADJUVANT IN THE FORM OF A LIPID-MODIFIED NUCLEIC ACID” (priority 2006, published 2007).
At least one compound was matched to its structure with a doubt left.

Conditions: cited from earlier work

Q: With `Cc1c(C)c2c(c(C)c1O)CC[C@@](C)(CCC[C@H](C)CCC[C@H](C)CCCC(C)C)O2` [α-Tocopherol] as the compound, how does the anti-tumour activity read?
A: potent anti-tumour activity

Q: And the toxicity?
A: not very toxic
